Experimental data as given in patent US20120067455A1, “Apparatus and Methods for Loading a Drug Eluting Medical Device” (Medtronic Vascular, Inc., priority 2010, published 2012).
For at least one compound, name, drawing or mass did not settle the structure.

Assay: Solubility of sirolimus in solvents and dispersion media
Type: physicochemical
Description: Solution 524 is a homogeneous mixture in which therapeutic substance 112 dissolves within a solvent or a solvent mixture. In one embodiment, solution 524 includes a high-capacity solvent 528 which is an organic solvent that has a high capacity to dissolve therapeutic substance 112. High capacity as utilized herein is defined as an ability to dissolve therapeutic substance 112 at concentrations greater than 500 mg of substance per milliliter of solvent. Examples of high capacity drug dissolving solvents for sirolimus and similar substances include but are not limited to tetrahydrofuran (THF), di-chloromethane (DCM), chloroform, and di-methyl-sulfoxide (DMSO). In addition to the high-capacity solvent, solution 524 may include an excipient 526 in order to assist in drug elution. In one embodiment, excipient 526 may be a surfactant such as but not limited to sorbitan fatty acid esters such as sorbitan monooleate and sorbitan monolaurate, polysorbates such as polysorbate 20, polysorbate 60, and polysorbate 80, cyclodextrins such as 2-hydroxypropyl-beta-cyclodextrin and 2,6-di-O-methyl-beta-cyclodextrin, sodium dodecyl sulfate, octyl glucoside, and low molecular weight poly(ethylene glycol)s. In another embodiment, excipient 526 may be a hydrophilic agent such as but not limited to salts such as sodium chloride and other materials such as urea, citric acid, and ascorbic acid. […]

CO[C@H]1C[C@@H]2CC[C@@H](C)[C@@](O)(O2)C(=O)C(=O)N2CCCC[C@H]2C(=O)O[C@H]([C@H](C)C[C@@H]2CC[C@@H](O)[C@H](OC)C2)CC(=O)[C@H](C)/C=C(\C)[C@@H](O)[C@@H](OC)C(=O)[C@H](C)C[C@H](C)/C=C/C=C/C=C/1C [sirolimus]
ability of solvent to dissolve therapeutic substance (low capacity solvents) (methanol, ethanol, propanol, acetonitrile, ethyl lactate, acetone, tetrahydrafuran/water (9:1 weight ratio)): below 500 mg of drug per milliliter solvent | ability of solvent to dissolve therapeutic substance (high capacity solvents) (tetrahydrofuran, di-chloromethane, chloroform, di-methyl-sulfoxide): greater than 500 mg of substance per milliliter of solvent
